This is an account of results in the supplement of paper PMC8728848.

The list shows a part of the results.

Common to all, as to experiment: glycan array binding signal (z-score within array); higher = stronger binding
What all share (conditions): glycan notation: IUPAC condensed, linker removed

The target of assay [1] is Fuc(a1-3)[Gal(b1-4)]GlcNAc(b1-3)Gal(b1-4)[Fuc(a1-3)]GlcNAc. In short, it runs like this:
(§1)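 The Consortium for Functional Glycomics database supplied 3228 glycan arrays, of which those lacking an available protein sequence were dropped. The binding signal, a within-array Z-score, was averaged across arrays of the same protein sequence and across linkers. Negative scores can be read as non-binding.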

In assay [2] the target is Fuc(a1-3)[Gal(b1-4)]GlcNAc(b1-3)Gal(b1-4)[Fuc(a1-3)]GlcNAc(b1-3)Gal(b1-4)[Fuc(a1-3)]GlcNAc. In short, it runs like this:
as §1

Assay [3] addresses Fuc(a1-3)[Gal(b1-4)]GlcNAc(b1-3)GalNAc. The essentials:
as §1

For assay [4], the target named is Fuc(a1-3)[Gal(b1-4)]GlcNAc(b1-6)GalNAc. In short, it runs like this:
as §1

Assay [5] concerns the target Fuc(a1-3)[Gal(b1-4)]GlcNAc(b1-6)[Gal(b1-3)GlcNAc(b1-3)]Gal(b1-4)Glc. The essentials:
as §1

The target in assay [6] is Fuc(a1-3)[Gal(b1-4)]GlcNAc6S. In short, it runs like this: as §1
The target of assay [7] is Fuc(a1-3)[Gal3S(b1-4)]Glc. In short, it runs like this:
as §1

Assay [8] concerns the target Fuc(a1-3)[Gal3S(b1-4)]GlcNAc. The essentials: as §1
Assay [9] addresses Fuc(a1-3)[Gal3S(b1-4)]GlcNAc6S. The essentials: as §1
Assay [10] concerns the target Fuc(a1-3)[GalNAc(b1-4)]GlcNAc. In short, it runs like this: as §1
The target in assay [11] is Fuc(a1-3)[GalNAc(b1-4)]GlcNAc6S. The essentials: as §1
The target in the next assay is Fuc(a1-4)GlcNAc. The essentials:
as §1

In another assay the target is Fuc(b1-3)GlcNAc. In short, it runs like this: as §1
The next assay addresses Gal(a1-2)Gal. The essentials: as §1
Another assay has as its target Gal(a1-3)Gal. The essentials: as §1
The target of a further assay is Gal(a1-3)Gal(b1-3)GlcNAc. The essentials:
as §1

Assay [12] has as its target Gal(a1-3)Gal(b1-3)GlcNAc(b1-2)Man. The essentials:
as §1

Assay [13] deals with Gal(a1-3)Gal(b1-3)GlcNAc(b1-2)Man(a1-3)[Gal(a1-3)Gal(b1-3)GlcNAc(b1-2)Man(a1-6)]Man(b1-4)GlcNAc(b1-4)GlcNAc. In short, it runs like this:
as §1

In assay [14] the target is Gal(a1-3)Gal(b1-3)GlcNAc(b1-3)GalNAc. In short, it runs like this:
as §1

Assay [15] addresses Gal(a1-3)Gal(b1-3)GlcNAc(b1-6)GalNAc. In short, it runs like this: as §1
Assay [16] concerns the target Gal(a1-3)Gal(b1-3)[Fuc(a1-4)]GlcNAc(b1-2)Man(a1-3)[Gal(a1-3)Gal(b1-3)[Fuc(a1-4)]GlcNAc(b1-2)Man(a1-6)]Man(b1-4)GlcNAc(b1-4)GlcNAc. In short, it runs like this: as §1
A further assay concerns the target Gal(a1-3)Gal(b1-4)Glc. The essentials: as §1
A further assay deals with Gal(a1-3)Gal(b1-4)GlcNAc. In short, it runs like this:
as §1

B1: Awp3 (Candida glabrata), B4UN32 (protein)
chain: MISFVTLLAILGLLSISWADQTVRSVAGDQRVTDPVIVGDNSILDYYGGSNYDFSNNFEIGRGTLYIGKESYFSSFQSAPTDVPNSFHLLIKNTNNLQNNGQFIIENIKRHANQCSNSSIQVFPINFQNDGEFEIISGGVEGRCCLPTSVIAPQNFLNNGKFYYKVLTDTGSIYSGSCMQNVDIGASTTTTVNNNLWEFTGSINAQINGAVSGAAQINLDGSNMFVNANTFSGQVVNLINGGSFLQTSDPLSNIVVINGLGTSDTGVTSIAVKGKGKSFTYNPSSGIVKLTTVEGKTYAYQIGCGYNTKKFITNNDSGASYESADNFFVLTYSEPYSPQTCQLENSSIFSSNFISTSTSSSSSSSSASSLPSSMSSSLPSSLSSSLSSSLSSSMSSSMSSLFIIPPPYTTTRSSGSSIIDTEIVSFYSTTDSPGHTITGTTTTTLYGPHTHSSVSTPSSSSESSTTSNSSIESSSLPHTSVSSTPESSITPSSNTISSSPTSDFSSVQSSSIMESSSVVASSSVINSSSIVDSSSSSASSLPSSMSSSLSSSMSSSLPSSMSSSLSSSLSSSLSSSMSSSMSSLFIIPPPYTTTRSSGSSIIDTEIVSFYSTTDSPGHTITGTTTTTLYGPHTHSSVSTPSSSSESSTTSNSSIESSSLPHTSVSSTPESSITPSSNTISSSPTSDFSSVQSSSIMESSSVVASSSVINSSSIVDSSSSSASSLPSSMPSSLPSSMSSSLSSSMSSSLSSSLSSSLSSSMSSSMSSLFIIPPPYTTTRSSGSSIIDTEIVSFYSTTDSPGHTITGTTTTTLYGPHTHSSVSTPSSSSESSTTSNSSIESSSLPHTSVSSTPESSITPSSNTISSSPTSDFSSVQSSSIMESSSVVASSSATQSSSVINSSSIVDSSSSSASSLPSSMPSSLPSSLSSSLSSSLSSSMSSSMSSLFIIPPPYTTTRSSGSSIIDTEIVSFYSTTDSPGHTITGTTTTTLYESSIYSSSSSTIQESELSNTSRTTMTSNSSVSISSTSSRSSFSNTKSSTIVISQSASLPDSKTDIILSTSSNIGYSSRSLLSDLGTSISDSDIHHSVLHSTESYSSNESGTNPFTSIASLSNFIPESSSHTSTALGSENSVISSDILTTMSHPVATNSGDKPTTPKRSEQVSTTMTSSGPTPDTSSFDTDGMSAYSRPEFTTNSLEVNKSSTSQLGNNKQTFSNLQLESTRPHSENEVDNNTRLLQSIQQSSTYGTNNVNPLSPTGSISIPLTEDGQGDNNNWNSPATNDLCTQISFNLTATTITVTDRITITDSIHDISSEVITSYIYQTIVDQKTVTQTVDGKSLANKMSSIPKPSSRSLIQPQPPVAIELQEGAASTSRVSLVSLFISIILVLL
For the molecule B1, the “glycan array binding signal (z-score)” value is 1.09 in assay [1]; 0.147 in assay [2]; 0.518 in assay [3]; 0.39 in assay [4]; -0.414 in assay [5]; 1.18 in assay [6]. The “glycan array binding signal (z-score)” value in assay [7] is -0.133; in assay [8] it was -0.473; in assay [9], 0.585; in assay [10] it was 0.68; in assay [11], 1.2; with Fuc(a1-4)GlcNAc, 0.299. Moreover, the “glycan array binding signal (z-score)” value with Fuc(b1-3)GlcNAc is -0.579; with Gal(a1-2)Gal it was -0.832; with Gal(a1-3)Gal it was 0.937; with Gal(a1-3)Gal(b1-3)GlcNAc, -0.723; in [12], 1.14; in assay [13], 0.241. In addition, the “glycan array binding signal (z-score)” value was 0.407 in [14]; -1.37 in [15]; 1.73 in [16]; 0.672 with Gal(a1-3)Gal(b1-4)Glc; 1.06 with Gal(a1-3)Gal(b1-4)GlcNAc.
